Counter-ions that a name gives are not always drawn. This is one part of the list. The data scatter; read single values as rough.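 Yeast growth was measured as optical density at 600 nm. Two-hybrid strains grew without histidine, so growth depended on Pex3–Pex19 binding. A compound was trypanosome-selective if it reduced growth of the trypanosome-pair strain by over 65% and of the human-pair strain by under 65%.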
Legend:
[1] = system: Saccharomyces cerevisiae HF7c pdr5Δ; assay: general growth inhibition of yeast HF7c pdr5Δ in -Leu -Trp medium, relative to DMSO; higher = stronger general growth inhibition; conditions: 100 µM; 24 h
[2] = system: human PEX3-PEX19 interaction (yeast two-hybrid); assay: growth inhibition of yeast two-hybrid strain reporting HsPex3-HsPex19 interaction, relative to DMSO; higher = stronger inhibition of human Pex3-Pex19 interaction / growth; conditions: 100 µM; 24 h; 3-aminotriazole 10 mM
[3] = system: T. brucei Pex3-Pex19 interaction (yeast two-hybrid); assay: growth inhibition of yeast two-hybrid strain reporting TbPex3-TbPex19 interaction, relative to DMSO; higher = stronger inhibition of T. brucei Pex3-Pex19 interaction / growth; conditions: 100 µM; 24 h

Row | SMILES | general growth inhibition [1] | growth inhibition [2] | growth inhibition [3]
1 | O=C(O)Cc1ccc(O)c(O)c1 [3,4-Dihydroxyphenylacetic acid] | 32.5% | 39.9% | 57.1%
2 | O=C(C1CCCCC1)N1CC(=O)N2CCc3ccccc3C2C1 (stereo not drawn) [Praziquantel] | 48.2% | 47.9% | 67%
3 | NC(=O)c1ncn([C@@H]2O[C@H](CO)[C@@H](O)[C@H]2O)c1O [Mizoribine] | 51.9% | 47.9% | 72.6%
4 | CC(=O)Oc1cc(C(C)C)c(OCCN(C)C)cc1C [Moxisylyte hydrochloride] | 48.1% | 34.6% | 68%
5 | Cc1cc(O)c2c(c1)C(=O)c1cc(O)cc(O)c1C2=O [Emodin] | 13.8% | -14.9% | 10.7%
6 | CC(C)(CO)Cc1cc(C(C)(C)C)c(O)c(C(C)(C)C)c1 | 50.5% | 32.6% | 35.1%
7 | CC1CNc2c(cccc2S(=O)(=O)N[C@@H](CCCNC(=N)N)C(=O)N2CC[C@@H](C)C[C@@H]2C(=O)O)C1 (stereo partly drawn) [Argatroban monohydrate] | 32% | 42.2% | 49.4%
8 | CSC(=N)N [S-Methylisothiourea hemisulfate] | 53.9% | 44.6% | 65.3%
9 | CC1(C2CCCC2)Cc2cc(OCC(=O)O)c(Cl)c(Cl)c2C1=O (stereo not drawn) | 41.7% | 44.5% | 54.9%
10 | CCN(CC)CCOC(=O)C1(C2CCCCC2)CCCCC1 [Dicyclomine hydrochloride] | 36.5% | 26.8% | 51.1%
11 | CC[C@H](NC(=O)c1c(C)c(-c2ccccc2)nc2ccccc12)c1ccccc1 | 67.7% | 50.5% | 59.5%
12 | OC[C@H]1NC[C@H](O)[C@@H](O)[C@@H]1O [1-Deoxynojirimycin hydrochloride] | 37.6% | 38.5% | 61.3%
13 | Nc1ccc(CCNc2ncnc3c2ncn3C2OC(CO)C(O)C2O)cc1 (stereo not drawn) [N6-2-(4-Aminophenyl)ethyladenosine] | 47.7% | 41.5% | 60.3%
14 | CC(C)NCC(O)COc1ccc(CC(N)=O)cc1 (racemic) [(±)-Atenolol] | 35.7% | 40.7% | 55%
15 | C=C1C[C@@]23CC[C@H]4[C@@](C)(CCC[C@@]4(C)C(=O)O)[C@@H]2CC[C@]1(O)C3 [Steviol] | 47.4% | 28.3% | 37.4%
16 | CN1CCC[C@@H]1Cc1c[nH]c2ccc(CCS(=O)(=O)c3ccccc3)cc12 [Eletriptan hydrobromide] | 5.84% | 5.56% | 28.6%
17 | COc1ccc(/C=C/c2nc(NCCCN(C)C)c3ccccc3n2)cc1 | 8.66% | 4.53% | 37.1%
18 | CC(C)(C)c1ccc(S(=O)(=O)/C=C/C#N)cc1 | 91.1% | 88.8% | 84.2%
19 | NC(=O)C1=CN(C2OC(COP(=O)(O)OP(=O)(O)OC[C@H]3O[C@@H](n4cnc5c(N)ncnc54)C(OP(=O)(O)O)[C@H]3O)C(O)C2O)C=CC1 (stereo partly drawn) [NADPH tetrasodium] | 9.51% | 7.23% | 34.1%
20 | C[N+]1(C)CCC(OC(=O)C(c2ccccc2)c2ccccc2)CC1 | 50.6% | 48.2% | 56.5%
21 | Nc1nc2[nH]c(=O)cnc2c(=O)[nH]1 [Isoxanthopterin] | 30.4% | 28.9% | 48.9%
22 | Nc1nc2c(ncn2COC(CO)CO)c(=O)[nH]1 [Ganciclovir] | 25.5% | 35.6% | 58.5%

Row | SMILES | general growth inhibition [1] | growth inhibition [2] | growth inhibition [3]
23 | CNCC[C@H](Oc1ccc(C(F)(F)F)cc1)c1ccccc1 [S-(+)-Fluoxetine hydrochloride] | 2.34% | -9.85% | 15.7%
24 | CC(C)=CCC/C(C)=C/COc1ccc2ccc(=O)oc2c1 [Auraptene] | 21.9% | 26.1% | 51.6%
25 | COc1cccc(OC)c1OCCNCC1CSc2ccccc2O1 (stereo not drawn) [Benoxathian hydrochloride] | 39.6% | 42.3% | 45.7%
26 | O=c1[nH]cc(F)c(=O)[nH]1 [5-Fluorouracil] | 45.3% | 40.7% | 62.8%
27 | CN1[C@@H](CC(=O)c2ccccc2)CCC[C@H]1C[C@H](O)c1ccccc1 [alpha-Lobeline hydrochloride] | 49.5% | 43% | 73%
28 | Nc1nnc(-c2cccc(Cl)c2Cl)c(N)n1 [Lamotrigine] | 47.3% | 46.3% | 69.7%
29 | NC[C@@H](O)c1ccc(O)c(O)c1 [L(-)-Norepinephrine bitartrate] | 42.2% | 34.3% | 62.4%
30 | CN1CCN(CCCN2c3ccccc3Sc3ccc(C(F)(F)F)cc32)CC1 [Trifluoperazine dihydrochloride] | 40.2% | 38.2% | 51%
31 | C[N+]1(C)CCC(OC(=O)C(c2ccccc2)c2ccccc2)CC1 [4-DAMP methiodide] | 5.05% | 4.77% | 30.2%
32 | CC(=O)OCC(=O)[C@@]1(O)CC[C@H]2[C@@H]3CCC4=CC(=O)CC[C@]4(C)[C@H]3C(=O)C[C@@]21C [Cortisone 21-acetate] | 40% | 43.8% | 50%
33 | CC(=O)N[C@@H](Cc1c[nH]c2ccccc12)C(=O)OCc1cc(C(F)(F)F)cc(C(F)(F)F)c1 | 48.1% | 43.4% | 63.6%
34 | CN(c1ccccc1CNc1nc(Nc2ccc3c(c2)CC(=O)N3)ncc1C(F)(F)F)S(C)(=O)=O | 29.9% | 25.9% | 53.1%
35 | NC[C@@H]1O[C@H](C23CC4CC(CC(C4)C2)C3)Cc2c1ccc(O)c2O | 42% | 35.9% | 58.6%
36 | N=C(N)NCCC[C@H](N)C(=O)O [L-Arginine] | 22.4% | 28.7% | 49.4%
37 | CC(C)(C)c1ccc(/C=C/C(=O)Nc2ccc3c(c2)OCCO3)cc1 | 30.2% | 21.8% | 44.5%
38 | C#CC(N)CCC(=O)O (stereo not drawn) [gamma-Acetylinic GABA] | 34.7% | 52.7% | 66.1%
39 | CCC(C)N(C)C(=O)c1cc2ccccc2c(-c2ccccc2Cl)n1 (stereo not drawn) | 55% | 43.1% | 53.3%
40 | COc1nc(C)nc(Cl)c1NC1=NCCN1 [Moxonidine hydrochloride] | 53.4% | 51.2% | 69.6%
41 | CCCCCCCCCCCCCCCC(=O)OC[C@H](COP(=O)(O)OCCNC(=O)[C@H](C)NC(=O)CC[C@@H](NC(=O)[C@H](C)NC(=O)[C@@H](C)O[C@H]1[C@H](O)[C@@H](CO)OC(O)[C@@H]1NC(C)=O)C(N)=O)OC(=O)CCCCCCCCCCCCCCC (stereo partly drawn) [Mifamurtide] | 41.8% | 41.9% | 63.2%
42 | O=C1Nc2ccc(I)cc2/C1=C/c1cc(Br)c(O)c(Br)c1 | 20.3% | 9.37% | 34%
43 | NCCS(=O)O [Hypotaurine] | 41% | 40.3% | 51.2%
44 | C[C@@H](CN1CCC(Cc2ccccc2)CC1)[C@@H](O)c1ccc(O)cc1 [Ro 25-6981 hydrochloride] | 48.8% | 46.8% | 68.4%

Row | SMILES | general growth inhibition [1] | growth inhibition [2] | growth inhibition [3]
45 | Cc1nc2sccn2c(=O)c1CCN1CCC(=C(c2ccc(F)cc2)c2ccc(F)cc2)CC1 [Ritanserin] | 30.1% | 25.3% | 61.8%
46 | CCCN(CCC)CCc1cccc2c1CC(=O)N2 [Ropinirole hydrochloride] | 43% | 45.4% | 53%
47 | O=C(O)CCCCCCCC(=O)O [Azelaic acid] | 26.3% | 34.9% | 49.4%
48 | O=c1[nH]c(=O)c2nc3ccccc3nc2[nH]1 [Alloxazine] | 28% | 23.7% | 41%
49 | NNc1nncc2ccccc12 [Hydralazine hydrochloride] | 28.8% | 47.3% | 62%
50 | CC(C)COCC(CN(Cc1ccccc1)c1ccccc1)N1CCCC1 (stereo not drawn) [Bepridil hydrochloride] | 31.3% | 31% | 43.2%
51 | NC(C(=O)O)C(O)C(=O)O (racemic) [DL-threo-beta-hydroxyaspartic acid] | 36.1% | 38.6% | 54.6%
52 | CNC(=C[N+](=O)[O-])NCCSCc1ccc(CN(C)C)o1 [Ranitidine hydrochloride] | 51.9% | 49.6% | 62.8%
53 | O=C1Cc2c([nH]c3ccc(Br)cc23)-c2ccccc2N1 [Kenpaullone] | 3.08% | -8.1% | 16.8%
54 | Cc1nc(C#Cc2cccnc2)cs1 [MTEP hydrochloride] | 44.3% | 51% | 61.7%
55 | O=C(O)C=C1CCCc2ccccc2C1O (stereo not drawn) | 54.6% | 42.4% | 71.5%
56 | CCn1nc(C(=O)O)c(=O)c2cc3c(cc21)OCO3 [Cinoxacin] | 60.1% | 33.5% | 63.4%
57 | C[C@]12C=CC(=O)C=C1CC[C@@H]1C2=CC[C@]2(C)[C@@H](C(=O)CN3CCN(c4cc(N5CCCC5)nc(N5CCCC5)n4)CC3)CC[C@@H]12 | 36.6% | 29.9% | 69.1%
58 | COc1cc2c(CCNC(C)=O)c[nH]c2cc1O [6-Hydroxymelatonin] | 32.5% | 35.3% | 58.2%
59 | CC(C)NC[C@H](O)COc1cccc2ccccc12 [(S)-Propranolol hydrochloride] | 49.3% | 42.6% | 51.5%
60 | CC(C)(C(=O)O)c1ccc(C(O)CCCN2CCC(C(O)(c3ccccc3)c3ccccc3)CC2)cc1 (stereo not drawn) [Fexofenadine hydrochloride] | 21.1% | 27.2% | 36.6%
61 | C#CCn1c(=O)c2c(ncn2C)n(C)c1=O [3,7-Dimethyl-1-propargylxanthine] | 31.7% | 43.2% | 68.7%
62 | Cc1cc(Cn2cnc3c2C[C@@H](C(=O)O)N(C(=O)C(c2ccccc2)c2ccccc2)C3)ccc1N | 40% | 44.2% | 63%
63 | CN1CCN(CC(=O)N2c3ccccc3C(=O)Nc3cccnc32)CC1 [Pirenzepine dihydrochloride] | 24.8% | 13.5% | 45%
64 | C[C@H](Cc1ccc(O)c(O)c1)[C@@H](C)Cc1ccc(O)c(O)c1 | 45% | 36.5% | 35.1%
65 | Nc1ncnc2c1ncn2[C@@H]1O[C@@H]2COP(=O)(O)O[C@H]2[C@H]1O [Adenosine 3',5'-cyclic monophosphate] | 8.87% | 2.22% | 33.9%
66 | Nc1ccn([C@H]2CC[C@@H](CO)O2)c(=O)n1 [2',3'-dideoxycytidine] | 41.3% | 44.7% | 65.1%

Copied from the list:
CC(=O)Oc1cc(C(C)C)c(OCCN(C)C)cc1C [Moxisylyte hydrochloride] – growth inhibition [2]: 34.6%
CC(C)(C)c1ccc(/C=C/C(=O)Nc2ccc3c(c2)OCCO3)cc1 – growth inhibition [2]: 21.8%
CC[C@H](NC(=O)c1c(C)c(-c2ccccc2)nc2ccccc12)c1ccccc1 – growth inhibition [3]: 59.5%
O=C1Cc2c([nH]c3ccc(Br)cc23)-c2ccccc2N1 [Kenpaullone] – growth inhibition [2]: -8.1%
